Record: PubChem BioAssay AID686937 (Drosophila RNAi Screening Center, 2013)

- Screen: 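Knock-downs that reduce output of a secreted reporter enzyme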 (primary screen)
- Cells: Drosophila S2 cells expressing secreted horseradish peroxidase
- Reagent: long dsRNA against Drosophila genes
- Duration: about 5.5 days (5 days dsRNA, then 12 h reporter induction)
- Challenge: reporter expression induced after 5 days of dsRNA, read 12 h later; inducer not stated
- Measurement: 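Chemiluminescent measurement of peroxidase in the medium 12 h after reporter induction, following 5 days of dsRNA, given as a z-score per plate; higher means more secretion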
- Direction: z-score: higher = more reporter secreted into medium
In all, the deposit lists about 23,000 reagents; shown is an unselected part of those that have a named target and a result. 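Reduced-secretion tags in replicate 1 do not always agree with the z-scores; no criterion for assigning the tags was given.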 The numbers tell different reagents against one gene apart. A plus sign joins genes that one reagent is predicted to hit. Further read-outs or replicates are left out here. Not stated in the record: the amount of reagent.

Prx1 gave z-score, replicate 1 = -0.07. Arp2 scored z-score, replicate 1 = -0.1. CG14683 scored z-score, replicate 1 = 0.55. After knock-down of tplus3a + tplus3b, the record shows z-score, replicate 1 = -0.43. Against CG43367 + asRNA:CR32252, the values are z-score, replicate 1 = 0.07. CG4950 gave z-score, replicate 1 = 0.15.

cher showed z-score, replicate 1 = 0.35. For CG4440 the deposit lists z-score, replicate 1 = -0.24. Against CG31642, the entry reads z-score, replicate 1 = 0.38. After knock-down of wb #1, the screen gave z-score, replicate 1 = -3.09. After knock-down of wb #2 the results were z-score, replicate 1 = -0.05. With knock-down of PH4alphaPV, the record shows z-score, replicate 1 = 0.55.

Against CG10097 + CG10096 #1, the entry reads z-score, replicate 1 = 0.25. Against CG10097 + CG10096 #2, the entry reads z-score, replicate 1 = 0.19. With knock-down of Acbp4, the screen gave z-score, replicate 1 = 0.17. For CG9518 the deposit lists z-score, replicate 1 = 0.3. CG4733 showed z-score, replicate 1 = 0.44. Depletion of Sp212 gave: z-score, replicate 1 = -0.02.

Quoted from the listing, 7 entries:
CG31642 — z-score, replicate 1: 0.38
wb #1 — z-score, replicate 1: -3.09
wb #2 — z-score, replicate 1: -0.05
PH4alphaPV — z-score, replicate 1: 0.55
CG10097 + CG10096 #1 — z-score, replicate 1: 0.25
CG10097 + CG10096 #2 — z-score, replicate 1: 0.19
Acbp4 — z-score, replicate 1: 0.17

More reagents follow:
CG32568 scored z-score, replicate 1 = 0.16. Knock-down of CG15625 resulted in: z-score, replicate 1 = 0. Silencing of Lam came out at: z-score, replicate 1 = -1.35. For CG9109, the values are z-score, replicate 1 = 0.2. Depletion of CG7810 gave: z-score, replicate 1 = 0.3. X11Lbeta #1 gave z-score, replicate 1 = 0.28.

Depletion of X11Lbeta #2 gave: z-score, replicate 1 = 0.38. After knock-down of CG15579 the results were z-score, replicate 1 = 0.19. Depletion of or resulted in: z-score, replicate 1 = 0.19. After knock-down of CAH9, the record shows z-score, replicate 1 = 0.36. With knock-down of CG43117, the screen gave z-score, replicate 1 = 0.48. Against CG14742 the deposit lists z-score, replicate 1 = 0.67.

Against hmw, the entry reads z-score, replicate 1 = 0.09. Sesn #1 showed z-score, replicate 1 = 0.22. Silencing of Sesn #2 came out at: z-score, replicate 1 = 0.19. After knock-down of Sesn #3 the results were z-score, replicate 1 = 0.25. For CG13502, the entry reads z-score, replicate 1 = 0. Against Mau2 the deposit lists z-score, replicate 1 = 0.48.

With knock-down of NFAT #1 the results were z-score, replicate 1 = -1.04. NFAT #2 showed z-score, replicate 1 = 0.15. eIF3f1 scored z-score, replicate 1 = -2.63. Against CG33689, the entry reads z-score, replicate 1 = 0.05.
